Six molecules from doi:10.1101/354316 can be followed below.

By UniProt entry, the sequences of proteins in these tests, tags left out. Where a name states a change or a piece, a line headed by the entry shows the natural chain unless it says otherwise.
UniProt Q9BRR9: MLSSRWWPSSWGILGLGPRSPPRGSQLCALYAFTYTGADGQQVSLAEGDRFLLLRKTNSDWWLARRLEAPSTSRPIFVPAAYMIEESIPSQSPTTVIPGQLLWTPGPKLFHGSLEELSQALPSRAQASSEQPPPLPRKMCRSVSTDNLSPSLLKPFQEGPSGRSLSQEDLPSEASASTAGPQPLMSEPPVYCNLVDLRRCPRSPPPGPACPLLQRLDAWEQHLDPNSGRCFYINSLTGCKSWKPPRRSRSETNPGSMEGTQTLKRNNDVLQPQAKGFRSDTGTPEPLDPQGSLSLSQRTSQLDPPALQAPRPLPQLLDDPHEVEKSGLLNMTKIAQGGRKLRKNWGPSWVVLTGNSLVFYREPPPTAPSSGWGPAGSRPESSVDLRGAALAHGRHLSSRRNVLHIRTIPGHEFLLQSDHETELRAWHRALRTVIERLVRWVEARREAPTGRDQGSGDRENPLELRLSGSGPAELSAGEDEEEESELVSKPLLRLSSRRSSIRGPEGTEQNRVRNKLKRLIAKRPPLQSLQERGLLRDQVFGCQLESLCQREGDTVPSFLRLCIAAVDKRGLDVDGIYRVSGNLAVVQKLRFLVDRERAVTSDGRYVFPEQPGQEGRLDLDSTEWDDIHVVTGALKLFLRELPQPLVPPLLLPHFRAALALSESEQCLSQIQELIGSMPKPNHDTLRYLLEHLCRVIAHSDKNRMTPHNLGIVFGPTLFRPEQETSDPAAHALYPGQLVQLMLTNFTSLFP
UniProt Q9NZM3: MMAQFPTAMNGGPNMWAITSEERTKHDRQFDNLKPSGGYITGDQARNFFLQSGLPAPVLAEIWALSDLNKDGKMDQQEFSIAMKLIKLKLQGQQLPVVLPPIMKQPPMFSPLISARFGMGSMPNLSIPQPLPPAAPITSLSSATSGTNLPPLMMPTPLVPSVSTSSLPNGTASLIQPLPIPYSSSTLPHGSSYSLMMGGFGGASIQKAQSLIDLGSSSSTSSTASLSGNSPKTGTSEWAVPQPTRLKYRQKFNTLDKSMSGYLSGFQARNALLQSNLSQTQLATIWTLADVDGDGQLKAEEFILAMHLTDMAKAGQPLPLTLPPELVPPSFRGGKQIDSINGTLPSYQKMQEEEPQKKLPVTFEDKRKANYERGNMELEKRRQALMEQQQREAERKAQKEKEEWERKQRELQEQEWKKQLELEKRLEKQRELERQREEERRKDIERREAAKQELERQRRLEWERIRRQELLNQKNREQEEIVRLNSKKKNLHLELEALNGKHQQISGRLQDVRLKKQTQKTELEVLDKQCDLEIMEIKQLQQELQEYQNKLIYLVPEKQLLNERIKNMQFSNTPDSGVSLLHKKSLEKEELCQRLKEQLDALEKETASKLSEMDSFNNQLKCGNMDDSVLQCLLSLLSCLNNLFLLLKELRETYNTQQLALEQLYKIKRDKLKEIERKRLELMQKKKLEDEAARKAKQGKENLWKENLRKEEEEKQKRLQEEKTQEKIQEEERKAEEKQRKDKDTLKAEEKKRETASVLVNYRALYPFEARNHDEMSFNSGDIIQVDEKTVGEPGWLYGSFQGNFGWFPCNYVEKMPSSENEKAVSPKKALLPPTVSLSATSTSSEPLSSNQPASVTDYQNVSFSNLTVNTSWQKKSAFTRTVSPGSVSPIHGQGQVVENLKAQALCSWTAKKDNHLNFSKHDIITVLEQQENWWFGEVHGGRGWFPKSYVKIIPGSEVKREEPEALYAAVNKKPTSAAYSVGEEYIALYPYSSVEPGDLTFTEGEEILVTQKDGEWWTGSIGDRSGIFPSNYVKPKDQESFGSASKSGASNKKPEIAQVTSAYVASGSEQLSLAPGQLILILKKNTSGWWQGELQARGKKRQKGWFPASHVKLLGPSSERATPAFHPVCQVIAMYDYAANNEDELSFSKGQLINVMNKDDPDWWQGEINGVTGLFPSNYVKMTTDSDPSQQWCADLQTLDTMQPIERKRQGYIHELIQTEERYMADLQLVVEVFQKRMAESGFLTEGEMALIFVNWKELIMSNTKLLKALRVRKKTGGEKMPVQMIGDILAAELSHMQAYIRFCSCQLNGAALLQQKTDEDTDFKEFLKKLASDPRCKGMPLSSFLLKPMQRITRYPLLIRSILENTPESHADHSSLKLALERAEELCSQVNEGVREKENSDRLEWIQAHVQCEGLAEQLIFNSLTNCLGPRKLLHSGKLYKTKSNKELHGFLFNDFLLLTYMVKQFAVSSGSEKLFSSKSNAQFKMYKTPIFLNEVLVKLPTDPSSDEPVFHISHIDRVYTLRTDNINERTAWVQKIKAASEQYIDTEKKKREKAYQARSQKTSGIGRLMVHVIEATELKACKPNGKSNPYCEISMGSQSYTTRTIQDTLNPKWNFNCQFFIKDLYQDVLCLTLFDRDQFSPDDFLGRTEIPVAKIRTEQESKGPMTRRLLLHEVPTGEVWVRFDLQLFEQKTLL
UniProt P46109: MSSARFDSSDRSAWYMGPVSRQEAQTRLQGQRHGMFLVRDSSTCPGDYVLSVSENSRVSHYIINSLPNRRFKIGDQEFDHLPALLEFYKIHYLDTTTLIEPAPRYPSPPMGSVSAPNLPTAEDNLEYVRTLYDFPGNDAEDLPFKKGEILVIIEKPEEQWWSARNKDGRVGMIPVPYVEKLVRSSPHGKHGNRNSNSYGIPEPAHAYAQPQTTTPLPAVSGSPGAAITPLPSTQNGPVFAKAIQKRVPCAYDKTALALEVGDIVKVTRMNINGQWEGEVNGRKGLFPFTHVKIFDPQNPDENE
UniProt P06396: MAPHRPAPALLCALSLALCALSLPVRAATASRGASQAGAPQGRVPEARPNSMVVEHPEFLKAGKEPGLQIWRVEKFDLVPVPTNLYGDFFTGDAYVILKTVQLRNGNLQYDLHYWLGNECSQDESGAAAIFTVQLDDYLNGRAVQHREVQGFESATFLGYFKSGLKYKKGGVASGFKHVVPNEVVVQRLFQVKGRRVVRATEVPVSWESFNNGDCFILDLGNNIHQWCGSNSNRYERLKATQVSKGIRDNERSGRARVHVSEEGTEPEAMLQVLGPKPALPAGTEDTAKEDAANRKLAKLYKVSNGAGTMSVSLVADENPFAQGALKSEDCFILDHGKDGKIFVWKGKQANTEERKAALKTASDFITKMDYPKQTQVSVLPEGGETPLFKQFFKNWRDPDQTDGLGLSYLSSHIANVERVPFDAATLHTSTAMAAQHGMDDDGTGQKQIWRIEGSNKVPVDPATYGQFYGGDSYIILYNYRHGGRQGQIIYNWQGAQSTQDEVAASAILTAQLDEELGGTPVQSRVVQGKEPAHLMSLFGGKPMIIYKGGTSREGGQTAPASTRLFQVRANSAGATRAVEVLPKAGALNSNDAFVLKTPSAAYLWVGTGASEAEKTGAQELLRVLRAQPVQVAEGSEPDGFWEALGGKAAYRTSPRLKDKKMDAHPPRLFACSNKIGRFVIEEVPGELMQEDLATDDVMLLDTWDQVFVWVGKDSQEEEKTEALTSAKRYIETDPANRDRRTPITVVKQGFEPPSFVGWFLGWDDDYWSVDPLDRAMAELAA
UniProt P35241: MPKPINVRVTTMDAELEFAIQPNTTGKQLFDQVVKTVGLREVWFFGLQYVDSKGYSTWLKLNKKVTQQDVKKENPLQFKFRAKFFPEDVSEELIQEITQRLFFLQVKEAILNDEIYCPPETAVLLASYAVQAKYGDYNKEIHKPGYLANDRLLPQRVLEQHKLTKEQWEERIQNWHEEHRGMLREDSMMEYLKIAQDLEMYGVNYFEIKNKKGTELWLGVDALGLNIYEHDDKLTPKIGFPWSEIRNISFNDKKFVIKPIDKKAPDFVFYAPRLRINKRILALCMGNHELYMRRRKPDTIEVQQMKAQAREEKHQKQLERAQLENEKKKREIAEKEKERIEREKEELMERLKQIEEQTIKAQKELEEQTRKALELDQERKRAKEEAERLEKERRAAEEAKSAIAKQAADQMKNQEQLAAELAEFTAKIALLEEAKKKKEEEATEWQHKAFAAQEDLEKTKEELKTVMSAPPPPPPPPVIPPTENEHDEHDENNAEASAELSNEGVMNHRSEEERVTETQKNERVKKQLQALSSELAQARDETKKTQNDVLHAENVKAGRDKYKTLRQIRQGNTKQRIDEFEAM

No constants are given. Whether binding was seen depends on the method and setting. In cells and extracts the contact can be indirect. A yes stands for co-enrichment or nearness to the bait. Other partners may have been found.

Experiment in all cases: affinity purification with mass spectrometry
In assay [1] the target is ARHGAP9 (not stated (library cDNAs: human, mouse, rat or chimpanzee; Table S1)) (UniProt Q9BRR9).
In assay [2] the target is T1, ARHGAP11A (not stated (library cDNAs: human, mouse, rat or chimpanzee; Table S1)) (UniProt Q6P4F7).
T1 sequence: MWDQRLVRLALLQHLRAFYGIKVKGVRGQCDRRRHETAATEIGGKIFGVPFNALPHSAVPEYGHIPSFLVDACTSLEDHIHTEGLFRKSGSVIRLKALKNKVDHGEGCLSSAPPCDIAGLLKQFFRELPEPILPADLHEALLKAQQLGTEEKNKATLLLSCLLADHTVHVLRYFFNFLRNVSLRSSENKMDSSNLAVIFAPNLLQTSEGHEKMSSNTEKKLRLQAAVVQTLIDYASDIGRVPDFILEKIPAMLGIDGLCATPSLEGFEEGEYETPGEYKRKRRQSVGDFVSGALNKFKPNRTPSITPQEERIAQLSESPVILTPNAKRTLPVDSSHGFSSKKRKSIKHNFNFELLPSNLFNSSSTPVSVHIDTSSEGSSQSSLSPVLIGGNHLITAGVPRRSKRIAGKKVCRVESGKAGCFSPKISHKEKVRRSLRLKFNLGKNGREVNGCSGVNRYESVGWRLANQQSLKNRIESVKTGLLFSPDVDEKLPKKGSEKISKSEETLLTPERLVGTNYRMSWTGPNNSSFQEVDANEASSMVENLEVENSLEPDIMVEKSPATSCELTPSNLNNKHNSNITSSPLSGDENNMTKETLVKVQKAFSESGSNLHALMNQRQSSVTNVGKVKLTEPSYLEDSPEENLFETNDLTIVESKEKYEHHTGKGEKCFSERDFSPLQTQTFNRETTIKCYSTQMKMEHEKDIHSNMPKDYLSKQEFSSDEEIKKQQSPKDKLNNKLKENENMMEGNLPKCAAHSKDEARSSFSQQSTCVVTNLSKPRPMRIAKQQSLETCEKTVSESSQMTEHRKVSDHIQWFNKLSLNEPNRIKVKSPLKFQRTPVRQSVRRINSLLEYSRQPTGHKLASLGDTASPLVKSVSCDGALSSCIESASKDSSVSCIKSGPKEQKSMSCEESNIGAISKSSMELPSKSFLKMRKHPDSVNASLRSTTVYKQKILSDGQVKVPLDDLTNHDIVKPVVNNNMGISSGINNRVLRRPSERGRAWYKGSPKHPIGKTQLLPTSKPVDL

Assay [3] concerns the target T2, ARHGEF15 (not stated (library cDNAs: human, mouse, rat or chimpanzee; Table S1)) (UniProt O94989).
T2 sequence: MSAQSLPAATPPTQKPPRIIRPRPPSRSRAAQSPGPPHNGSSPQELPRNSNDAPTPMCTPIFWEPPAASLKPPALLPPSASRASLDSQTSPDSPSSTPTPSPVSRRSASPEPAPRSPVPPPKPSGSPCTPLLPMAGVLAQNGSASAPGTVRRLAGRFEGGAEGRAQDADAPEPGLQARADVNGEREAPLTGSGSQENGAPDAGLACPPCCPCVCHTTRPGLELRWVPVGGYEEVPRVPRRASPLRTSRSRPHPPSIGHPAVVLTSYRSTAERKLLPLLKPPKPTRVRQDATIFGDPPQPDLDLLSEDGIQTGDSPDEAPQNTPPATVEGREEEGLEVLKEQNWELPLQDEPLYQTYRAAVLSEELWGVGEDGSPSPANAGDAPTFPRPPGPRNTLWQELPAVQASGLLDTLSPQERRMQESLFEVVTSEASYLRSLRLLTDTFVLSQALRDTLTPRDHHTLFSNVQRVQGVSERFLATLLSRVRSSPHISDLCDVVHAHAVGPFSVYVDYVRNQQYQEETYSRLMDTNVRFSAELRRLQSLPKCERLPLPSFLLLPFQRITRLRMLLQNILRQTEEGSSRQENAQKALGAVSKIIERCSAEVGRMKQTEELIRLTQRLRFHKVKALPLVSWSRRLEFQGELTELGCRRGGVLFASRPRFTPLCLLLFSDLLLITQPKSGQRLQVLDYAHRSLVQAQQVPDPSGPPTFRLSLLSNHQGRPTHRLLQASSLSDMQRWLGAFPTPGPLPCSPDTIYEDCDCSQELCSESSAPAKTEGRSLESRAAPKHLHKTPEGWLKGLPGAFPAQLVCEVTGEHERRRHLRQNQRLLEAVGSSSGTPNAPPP

Assay [4] deals with ITSN2 (not stated (library cDNAs: human, mouse, rat or chimpanzee; Table S1)) (UniProt Q9NZM3).
In assay [5] the target is T3, VAV1 (not stated (library cDNAs: human, mouse, rat or chimpanzee; Table S1)) (UniProt P15498).
T3 sequence: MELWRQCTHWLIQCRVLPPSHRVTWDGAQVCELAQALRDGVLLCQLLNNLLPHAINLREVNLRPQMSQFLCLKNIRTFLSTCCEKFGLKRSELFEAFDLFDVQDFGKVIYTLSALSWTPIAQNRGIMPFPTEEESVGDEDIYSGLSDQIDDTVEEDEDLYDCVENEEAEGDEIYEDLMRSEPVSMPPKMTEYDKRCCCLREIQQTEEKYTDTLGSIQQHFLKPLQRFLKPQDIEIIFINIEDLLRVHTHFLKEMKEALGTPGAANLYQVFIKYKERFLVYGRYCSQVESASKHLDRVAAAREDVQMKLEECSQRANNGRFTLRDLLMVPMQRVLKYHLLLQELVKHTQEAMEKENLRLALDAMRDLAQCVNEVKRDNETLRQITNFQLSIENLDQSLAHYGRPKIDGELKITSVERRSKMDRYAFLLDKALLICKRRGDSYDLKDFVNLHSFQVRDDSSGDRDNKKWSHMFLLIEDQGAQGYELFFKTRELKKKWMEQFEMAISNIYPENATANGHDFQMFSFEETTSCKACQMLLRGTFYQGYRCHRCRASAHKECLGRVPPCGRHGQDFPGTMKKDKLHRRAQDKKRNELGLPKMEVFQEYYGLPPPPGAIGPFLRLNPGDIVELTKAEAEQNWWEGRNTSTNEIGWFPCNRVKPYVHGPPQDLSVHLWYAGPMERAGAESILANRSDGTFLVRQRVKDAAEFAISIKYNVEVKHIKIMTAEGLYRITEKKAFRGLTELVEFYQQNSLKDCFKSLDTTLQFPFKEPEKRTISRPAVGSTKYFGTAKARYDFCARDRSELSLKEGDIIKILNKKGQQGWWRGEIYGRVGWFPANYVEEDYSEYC

For the molecule CRKL (from UniProt P46109 1-303), the binding result in assay [1] is “binds”. On to Caldesmon (from UniProt Q05682-5), for which, in assay [2], the binding entry is on record as “binds”. The same measure, in the same setting: then Gelsolin (from UniProt P06396), with “binds”. On to Radixin (from UniProt P35241 1-583), for which the binding result in assay [3] is on record as “binds”.

Regarding Vinculin (from UniProt P18206-2), the binding result in assay [4] is “binds”.

B1: FARP2 (protein, UniProt O94887 1-1054)
chain: MGEIEGTYRVLQTAGMRLGAQTPVGVSTLEPGQTLLPRMQEKHLHLRVKLLDNTMEIFDIEPKCDGQVLLTQVWKRLNLVECDYFGMEFQNTQSYWIWLEPMKPIIRQIRRPKNVVLRLAVKFFPPDPGQLQEEYTRYLFALQLKRDLLEERLTCADTTAALLTSHLLQSEIGDYDETLDREHLKVNEYLPGQQHCLEKILEFHQKHVGQTPAESDFQVLEIARKLEMYGIRFHMASDREGTKIQLAVSHMGVLVFQGTTKINTFNWSKVRKLSFKRKRFLIKLHPEVHGPYQDTLEFLLGSRDECKNFWKICVEYHTFFRLLDQPKPKAKAVFFSRGSSFRYSGRTQKQLVDYFKDSGMKRIPYERRHSKTHTSVRALTADLPKQSISFPEGLRTPASPSSANAFYSLSPSTLVPSGLPEFKDSSSSLTDPQVSYVKSPAAERRSGAVAGGPDTPSAQPLGPPALQPGPGLSTKSPQPSPSSRKSPLSLSPAFQVPLGPAEQGSSPLLSPVLSDAGGAGMDCEEPRHKRVPADEAYFIVKEILATERTYLKDLEVITVWFRSAVVKEDAMPATLMTLLFSNIDPIYEFHRGFLREVEQRLALWEGPSKAHTKGSHQRIGDILLRNMRQLKEFTSYFQRHDEVLTELEKATKRCKKLEAVYKEFELQKVCYLPLNTFLLKPIQRLLHYRLLLRRLCGHYSPGHHDYADCHDALKAITEVTTTLQHILIRLENLQKLTELQRDLVGIENLIAPGREFIREGCLHKLTKKGLQQRMFFLFSDMLLYTSKGVAGTSHFRIRGLLPLQGMLVEESDNEWSVPHCFTIYAAQKTIVVAASTRLEKEKWMLDLNSAIQAAKSGGDTAPALPGRTVCTRPPRSPNEVSLEQESEDDARGVRSSLEGHGQHRANTTMHVCWYRNTSVSRADHSAAVENQLSGYLLRKFKNSHGWQKLWVVFTNFCLFFYKTHQDDYPLASLPLLGYSVSIPREADGIHKDYVFKLQFKSHVYFFRAESKYTFERWMEVIQGASSSAGRAPSIVQDGPQPSSGLEGMVRGKEE
Regarding B1, the binding result in assay [5] was “binds”.
